Data taken from patent US10207003B2, “Liquid pentablock co-polymer formulations for sustained delivery of therapeutics” (i-novion, Inc., priority 2016, dated 2019).
For at least one compound, name, drawing or mass did not settle the structure.

Assay: Dissolving hydrophobic active agents in PTSsol as clear aqueous liquids
Format: physicochemical
Conditions: in 10% PTS121GH in PBS buffer at pH 7.4
Method: Hydrophobic active agents that are difficult to formulate in aqueous compositions are typically formulated as emulsions or suspensions. […] Similarly, PTSsol for 0.5% celecoxib was prepared in 10% PTS121GH in PBS buffer at pH 7.4. […] Referring to FIGS. 2 and 3 the stability of 2.5% brinzolamide in 25% 1-0 GH polymer dispersion in PBS at pH 7.4 was analyzed over 8 weeks, using HPLC.

Cc1ccc(-c2cc(C(F)(F)F)nn2-c2ccc(S(N)(=O)=O)cc2)cc1 [celecoxib]
Drug concentration of PTSsol prepared: 0.5%
